# According to article PMC6073104:
# Protein sequences, listed by entry. Tags and fused reporters are not part of them.
# UniProt P26196: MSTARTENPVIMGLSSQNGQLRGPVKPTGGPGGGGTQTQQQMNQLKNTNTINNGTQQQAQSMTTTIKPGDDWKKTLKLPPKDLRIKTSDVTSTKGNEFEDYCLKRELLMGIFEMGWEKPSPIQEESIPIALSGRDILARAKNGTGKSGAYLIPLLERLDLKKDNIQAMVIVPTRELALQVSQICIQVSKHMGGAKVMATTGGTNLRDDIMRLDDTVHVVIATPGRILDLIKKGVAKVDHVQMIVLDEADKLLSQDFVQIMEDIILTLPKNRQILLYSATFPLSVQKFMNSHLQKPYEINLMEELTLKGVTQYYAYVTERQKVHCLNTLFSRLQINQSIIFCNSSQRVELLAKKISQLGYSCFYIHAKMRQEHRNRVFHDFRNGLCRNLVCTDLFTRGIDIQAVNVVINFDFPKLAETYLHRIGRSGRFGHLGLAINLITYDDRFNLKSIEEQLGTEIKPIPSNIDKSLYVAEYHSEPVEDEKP
# No constants are given. Whether binding was seen depends on the method and setting. In cells and extracts the contact can be indirect. Some results given as binding are weak or reduced against the parent protein; the word gives no strength.
# B1: RIG-I, endogenous in HeLa cells (protein, UniProt O95786 1-925)
# chain: MTTEQRRSLQAFQDYIRKTLDPTYILSYMAPWFREEEVQYIQAEKNNKGPMEAATLFLKFLLELQEEGWFRGFLDALDHAGYSGLYEAIESWDFKKIEKLEEYRLLLKRLQPEFKTRIIPTDIISDLSECLINQECEEILQICSTKGMMAGAEKLVECLLRSDKENWPKTLKLALEKERNKFSELWIVEKGIKDVETEDLEDKMETSDIQIFYQEDPECQNLSENSCPPSEVSDTNLYSPFKPRNYQLELALPAMKGKNTIICAPTGCGKTFVSLLICEHHLKKFPQGQKGKVVFFANQIPVYEQQKSVFSKYFERHGYRVTGISGATAENVPVEQIVENNDIIILTPQILVNNLKKGTIPSLSIFTLMIFDECHNTSKQHPYNMIMFNYLDQKLGGSSGPLPQVIGLTASVGVGDAKNTDEALDYICKLCASLDASVIATVKHNLEELEQVVYKPQKFFRKVESRISDKFKYIIAQLMRDTESLAKRICKDLENLSQIQNREFGTQKYEQWIVTVQKACMVFQMPDKDEESRICKALFLYTSHLRKYNDALIISEHARMKDALDYLKDFFSNVRAAGFDEIEQDLTQRFEEKLQELESVSRDPSNENPKLEDLCFILQEEYHLNPETITILFVKTRALVDALKNWIEGNPKLSFLKPGILTGRGKTNQNTGMTLPAQKCILDAFKASGDHNILIATSVADEGIDIAQCNLVILYEYVGNVIKMIQTRGRGRARGSKCFLLTSNAGVIEKEQINMYKEKMMNDSILRLQTWDEAVFREKILHIQTHEKFIRDSQEKPKPVPDKENKKLLCRKCKALACYTADVRVIEECHYTVLGDAFKECFVSRPHPKPKQFSSFEKRAKIFCARQNCSHDWGIHVKYKTFEIPVIKIESFVVEDIATGVQTLYSKWKDFHFEKIPFDPAEMSK
# Target: DDX6, endogenous in HeLa cells (human (endogenous in HeLa)) (UniProt P26196)
# Experiment: co-IP; reverse approach: DDX6 immunoprecipitated, RIG-I detected (Figure S1)
binder,measurement,value
B1,binding,binds
